From ChEMBL document CHEMBL3988442, “University of Dundee, Small-Polar-MMV Screening Library” (2021).

The chains behind the UniProt entries cited, without tags or fusion partners.
UniProt I6X8D2, whole entry: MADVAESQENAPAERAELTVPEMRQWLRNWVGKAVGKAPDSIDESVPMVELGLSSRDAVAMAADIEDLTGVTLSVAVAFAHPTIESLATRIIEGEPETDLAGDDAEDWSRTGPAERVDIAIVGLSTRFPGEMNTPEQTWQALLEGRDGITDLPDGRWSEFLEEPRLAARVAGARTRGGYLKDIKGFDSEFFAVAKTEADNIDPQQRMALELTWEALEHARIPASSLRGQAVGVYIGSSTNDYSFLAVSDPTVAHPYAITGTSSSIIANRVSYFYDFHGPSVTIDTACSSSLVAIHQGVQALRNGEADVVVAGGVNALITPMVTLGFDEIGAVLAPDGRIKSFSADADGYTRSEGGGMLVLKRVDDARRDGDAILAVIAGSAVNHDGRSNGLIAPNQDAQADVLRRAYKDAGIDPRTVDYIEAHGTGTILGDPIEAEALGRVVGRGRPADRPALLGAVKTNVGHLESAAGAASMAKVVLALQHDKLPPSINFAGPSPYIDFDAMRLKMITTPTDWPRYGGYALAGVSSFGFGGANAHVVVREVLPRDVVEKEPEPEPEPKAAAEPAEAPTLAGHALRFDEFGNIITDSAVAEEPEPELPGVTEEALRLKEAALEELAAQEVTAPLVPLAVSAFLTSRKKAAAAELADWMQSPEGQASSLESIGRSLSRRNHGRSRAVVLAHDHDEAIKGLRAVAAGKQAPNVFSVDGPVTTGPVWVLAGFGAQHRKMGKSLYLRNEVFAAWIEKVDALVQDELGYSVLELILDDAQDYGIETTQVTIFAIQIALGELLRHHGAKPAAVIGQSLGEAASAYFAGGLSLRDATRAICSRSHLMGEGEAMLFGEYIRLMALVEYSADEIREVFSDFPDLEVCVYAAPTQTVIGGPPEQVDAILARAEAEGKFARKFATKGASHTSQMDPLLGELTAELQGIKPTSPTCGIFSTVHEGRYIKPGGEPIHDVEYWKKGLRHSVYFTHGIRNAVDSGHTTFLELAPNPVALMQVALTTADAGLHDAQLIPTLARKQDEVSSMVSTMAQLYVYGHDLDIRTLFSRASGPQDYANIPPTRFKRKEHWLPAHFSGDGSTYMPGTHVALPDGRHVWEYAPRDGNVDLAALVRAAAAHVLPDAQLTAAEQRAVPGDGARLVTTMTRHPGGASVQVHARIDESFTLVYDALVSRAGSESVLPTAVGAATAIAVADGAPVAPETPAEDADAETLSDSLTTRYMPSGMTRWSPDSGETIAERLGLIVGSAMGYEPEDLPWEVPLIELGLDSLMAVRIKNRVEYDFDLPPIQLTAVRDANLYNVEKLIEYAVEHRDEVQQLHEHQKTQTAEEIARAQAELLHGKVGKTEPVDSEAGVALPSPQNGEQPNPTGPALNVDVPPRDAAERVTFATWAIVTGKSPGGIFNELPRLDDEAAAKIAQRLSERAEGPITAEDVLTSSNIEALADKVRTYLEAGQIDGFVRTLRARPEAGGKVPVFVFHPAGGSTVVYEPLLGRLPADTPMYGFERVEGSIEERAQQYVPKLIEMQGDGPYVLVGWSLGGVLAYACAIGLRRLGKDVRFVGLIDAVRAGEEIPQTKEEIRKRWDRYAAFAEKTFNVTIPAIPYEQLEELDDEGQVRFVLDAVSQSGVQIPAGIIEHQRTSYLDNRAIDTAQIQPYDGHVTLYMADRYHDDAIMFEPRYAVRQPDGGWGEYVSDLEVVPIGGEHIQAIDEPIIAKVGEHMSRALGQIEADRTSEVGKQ

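Enzyme assay of the thioesterase domain of polyketide synthase 13; the read-out is not stated. Target: Polyketide synthase Pks13, Mycobacterium tuberculosis (UniProt I6X8D2). Concentration: 30 µM. Higher reads as stronger inhibition (inferred from which compounds were picked for retests). Of about 67,000 compounds tested this way, about 300 (0.46%) reached 50% or more in at least one test.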

Values are the deposited “Percent Effect”, in %.
The record does not define 0% and 100%; most values in the screen are far below 50% and negative numbers occur (in some assays of this library far below -100).
Compounds were drawn at random from those tested, without regard to their results.

{"compound": "O=S1(=O)NC(C2CCN(Cc3ccncc3)CC2)Nc2ccccc21", "stereo": "stereo not drawn", "effect": 0.1911}
{"compound": "Cc1noc(CNc2ccc(C(=O)N3CCCC(C)C3)cc2C)n1", "stereo": "stereo not drawn", "effect": -8.696}
{"compound": "O=C(c1ccsc1)N1C[C@H](N2CCOCC2)[C@@H]2OCCC[C@@H]21", "effect": -25.1}
{"compound": "c1n[nH]cc1CCCN1CCC(OC2CCCCC2)CC1", "effect": -16.33}
{"compound": "COc1c(F)cc(NCC(=O)NC(C)(C#N)C2CC2)cc1F", "stereo": "stereo not drawn", "effect": -29.44}
{"compound": "CCn1c(C2CCCN(Cc3cc(OC)cc(OC)c3)C2)nn(C)c1=O", "stereo": "stereo not drawn", "effect": -3.015}
{"compound": "CC1CCCN(c2ccccc2OCC(=O)NC2CC2)C1", "stereo": "stereo not drawn", "effect": 2.185}
{"compound": "COCCN1CCN(CC(O)c2ccc(C(F)(F)F)cc2)CC1", "stereo": "stereo not drawn", "effect": -35.4}
{"compound": "CC(=O)c1cc(CN2C[C@@H](N(C)C)[C@H](C(C)C)C2)cs1", "effect": 6.317}
{"compound": "Cn1cc(CN2CCc3c(CNC(=O)C4CC4)cncc3C2)cn1", "effect": -26.45}
{"compound": "Cc1cc(C(=O)N2CCCC(c3cc(C(F)(F)F)[nH]n3)C2)on1", "stereo": "stereo not drawn", "effect": 2.215}
{"compound": "COc1cccc(CN2C[C@@H]3COC[C@]3(COc3cccnc3)C2)c1", "effect": -16.27}
{"compound": "CCCn1ccnc1CN1C[C@@H](CN2CCCCC2)[C@@H](CO)C1", "effect": 3.043}
{"compound": "Cc1ccc2c(c1)C(NCc1nccn1Cc1ccccc1)CCCO2", "stereo": "stereo not drawn", "effect": -41.5}
{"compound": "Cc1cc(CNC(=O)c2cc(NC(=O)C(C)C)ccc2Cl)no1", "effect": -9.262}
{"compound": "CN(CCCO)C(=O)c1ccc2c(c1)nc(N1CC[C@H](O)C1)n2C", "effect": -12.33}
{"compound": "COCCCSc1ccc(NCc2ccc(C)cn2)cc1", "effect": -24.3}
{"compound": "CC(CNC(=O)c1ccc(Cl)cc1F)N1CCCC1", "stereo": "stereo not drawn", "effect": -14.86}
{"compound": "Cc1csc(NC(=O)NCCCN2CCC(C(N)=O)CC2)n1", "effect": -13.38}
{"compound": "CCOc1cccc(C(=O)NCCC(=O)Nc2ccncc2)c1", "effect": -30.88}
{"compound": "COCC1(C(=O)N[C@H]2CN(c3ccnc(C)c3)C[C@@H]2C2CC2)CCC1", "effect": -12.18}
{"compound": "Cc1cc(-c2cnn(CCNC(=O)C3CCCO3)c2C2CC2)on1", "stereo": "stereo not drawn", "effect": -45.64}
{"compound": "CC(Cn1cccn1)NC(=O)NCc1ccc(C(N)=O)cc1", "stereo": "stereo not drawn", "effect": -9.886}
{"compound": "CN(Cc1ccco1)[C@@H]1CN(Cc2nccs2)C[C@@H]2CCCO[C@@H]21", "effect": 2.27}
{"compound": "COc1ccc(COCC(=O)N2CCN(CC(C)(C)O)CC2)cc1", "effect": -22.1}
{"compound": "Cc1ccc2cc(C3(O)CCN(C(=O)[C@@H]4CCCCN4)CC3)ccc2n1", "effect": -12.71}
{"compound": "CCCc1nc(NC2(COC)CCCC2)c2cnn(C)c2n1", "effect": 2.405}
{"compound": "Cc1ccc(S(=O)(=O)CCC(=O)N(C)Cc2cnn(C)c2)cc1", "effect": 11.77}
{"compound": "CCOc1ccc(NC(=O)NCc2csc(NC)n2)cc1C", "effect": -23.14}
{"compound": "Cc1c[nH]c(CN2CCOC(c3ccc(F)cc3)C2)c(C)c1=O", "stereo": "stereo not drawn", "effect": -24.33}
{"compound": "Cc1nn(C)c(N2CCOCC2)c1CNC1CCc2ccccc21", "stereo": "stereo not drawn", "effect": -2.84}
{"compound": "CCC(c1ccccc1)N1CCN(C(=O)c2cc(C(N)=O)c[nH]2)CC1", "stereo": "stereo not drawn", "effect": -38.75}
{"compound": "O=C(O)c1cc(NS(=O)(=O)c2ccc(Br)s2)c(F)cc1F", "effect": -27.64}
{"compound": "O=C(NCc1cc(F)ccc1F)Nc1ccn(CC(F)F)n1", "effect": -38.55}
{"compound": "Cn1cc(CC2CCN(C(=O)NCc3csc(C4CC4)n3)C2)cn1", "stereo": "stereo not drawn", "effect": -6.871}
{"compound": "O=c1nc(SCc2cccnc2)c2c(n1CCO)CCCC2", "effect": 7.885}
{"compound": "CNC(=O)COC1COC2(CCN(c3ccc(C)nn3)CC2)C1", "stereo": "stereo not drawn", "effect": -34.33}
{"compound": "Cc1ccc(CNCc2cc(Br)c3c(c2)OCO3)cc1", "effect": -38.21}
{"compound": "CC(C)CN1CCOC[C@H](Oc2ccc(S(C)(=O)=O)cc2)C1", "effect": 26.59}
{"compound": "O=C(c1ccc2sccc2c1)N1CCC(C(=O)O)(n2cccn2)CC1", "effect": -29.56}
{"compound": "COc1cccc(-n2cc(CN(C)Cc3ccnc(C(C)C)n3)cn2)c1", "effect": -16.52}
{"compound": "CC(C(=O)Nc1ccc(N2CCOCC2)nc1)n1cncn1", "stereo": "stereo not drawn", "effect": -18.67}
{"compound": "CCN1CCC2(C=C(C(=O)N(C)C)c3ccccc32)CC1", "effect": -19.52}
{"compound": "CCOc1ccc(-c2ccnc(C)n2)cc1C(=O)O", "effect": 1.247}
{"compound": "O=C(NCCc1ccncc1)[C@H]1CC[C@@H]2[C@@H](CCN2CC2CC2)O1", "effect": -27.66}
{"compound": "NC(=O)C1CCN(C(=O)c2cccn2Cc2cccs2)CC1", "effect": 1.022}
{"compound": "Cc1cnn(CC2CN(Cc3nccn3CC(F)(F)F)CCO2)c1", "stereo": "stereo not drawn", "effect": -25.1}
{"compound": "O=c1c2sccc2nc2n1CCN(Cc1ccccc1C(F)(F)F)CC2", "effect": -27.06}
{"compound": "Cc1nnc(NCCc2coc(-c3ccccc3)n2)c(C#N)c1C", "effect": -37.99}
{"compound": "Cn1cc(CN2CCCC(CCc3ccc(F)cc3F)C2)cn1", "stereo": "stereo not drawn", "effect": -19.68}
{"compound": "O=C1CN(C(=O)C2CN(c3ccccc3)CCO2)CCN1", "stereo": "stereo not drawn", "effect": -1.292}

6 of the entries, repeated:

* O=S1(=O)NC(C2CCN(Cc3ccncc3)CC2)Nc2ccccc21 (stereo not drawn) | 0.1911%
* O=C1CN(C(=O)C2CN(c3ccccc3)CCO2)CCN1 (stereo not drawn) | -1.292%
* Cc1csc(NC(=O)NCCCN2CCC(C(N)=O)CC2)n1 | -13.38%
* Cn1cc(CC2CCN(C(=O)NCc3csc(C4CC4)n3)C2)cn1 (stereo not drawn) | -6.871%
* Cc1cc(CNC(=O)c2cc(NC(=O)C(C)C)ccc2Cl)no1 | -9.262%
* CC(C)CN1CCOC[C@H](Oc2ccc(S(C)(=O)=O)cc2)C1 | 26.59%